Measurements from paper doi:10.1101/2024.02.28.582571.
These are yes or no findings as the source states them, for the method shown. For part of these data: In cells and extracts the contact can be indirect. Some results given as binding are weak or reduced against the parent protein; the word gives no strength.

The chains behind the UniProt entries cited, without tags or fusion partners.
UniProt A0ABX6ES48: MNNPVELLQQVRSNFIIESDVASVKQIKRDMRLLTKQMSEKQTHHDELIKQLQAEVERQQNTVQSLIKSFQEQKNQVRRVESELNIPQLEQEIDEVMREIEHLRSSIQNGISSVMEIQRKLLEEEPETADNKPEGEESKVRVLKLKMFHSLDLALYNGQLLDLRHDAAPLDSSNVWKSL
UniProt A0ABX6F2N8: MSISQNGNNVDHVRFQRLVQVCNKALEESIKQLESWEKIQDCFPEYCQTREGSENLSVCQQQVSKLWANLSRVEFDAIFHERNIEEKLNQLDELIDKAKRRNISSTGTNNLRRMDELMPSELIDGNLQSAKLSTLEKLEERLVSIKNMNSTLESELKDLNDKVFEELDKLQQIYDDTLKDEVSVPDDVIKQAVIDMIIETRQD

Assays:
[1] = biological target: Dsn1-6His-3M3DK (K. marxianus Dsn1 tagged at the endogenous locus) (Kluyveromyces marxianus); test: immunogold labelling with negative stain electron microscopy; kinetochores purified via Dsn1-6His-3M3DK from strains with or without Ndc80-V5, incubated with α-V5 antibody on 10 nm gold (1:100, 30 min, room temperature), negative stain
[2] = biological target: Dsn1-6His-3M3DK (K. marxianus Dsn1 tagged at the endogenous locus) (Kluyveromyces marxianus); test: co-IP; Dsn1-6His-3M3DK captured from lysate of benomyl-treated K. marxianus on α-M3DK Dynabeads (90 min, 4 °C), washed in Buffer H (25 mM HEPES pH 8.0, 150 mM KCl, 2 mM MgCl2, 0.1% NP-40, 15% glycerol), eluted with 3xM3DK peptide; immunoblot with α-Nnf1, α-Spc24, α-Okp1

binding [1] | binding [2] | Substance
binds |  | Ndc80-6xHis-3xV5 (K. marxianus Ndc80 tagged at the endogenous locus) (from UniProt A0ABX6F1V2 1-676)
 | binds | Spc24 (K. marxianus) (from UniProt A0ABX6ES48 1-179)
 | binds | Nnf1 (K. marxianus) (from UniProt A0ABX6F2N8 1-203)
